Values joined by “and” are separate entries in the source; they are usually repeats but may differ in a detail not shown here. Equal entries are not always repeated. Hit rate of the full screen: of about 1,900 compounds, about 15 (0.8%) were called active.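 The calls were made as follows: active = every replicate shows at least 50% inhibition; inconclusive = mean inhibition at least 50% but some replicate below; inactive = the rest.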 This is one part of the list. Non-standard residues stand in square brackets, D forms with d. Residues, ends and D or L forms follow the SMILES beside them. ξ: configuration not given here. ξV = CC(C)C(N)C(=O)O
Each molecule was assayed against DNA repair protein RAD52 homolog (Homo sapiens) (UniProt P43351) (assay: RAD52 ssDNA annealing inhibitors, primary screen, biochemical, FRET, single point (AID 651660;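 also: 0% = median of neutral control wells and 100% = median of positive control wells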)). Details: Recombinant RAD52 ssDNA annealing, FRET fluorescence, 30 min; at 18.7 µM; active compounds read high.

Sequences of proteins named here, by UniProt entry; tags and fusion partners are left off. A change or cut given only in a name is not applied to a line headed by its entry.
UniProt P43351: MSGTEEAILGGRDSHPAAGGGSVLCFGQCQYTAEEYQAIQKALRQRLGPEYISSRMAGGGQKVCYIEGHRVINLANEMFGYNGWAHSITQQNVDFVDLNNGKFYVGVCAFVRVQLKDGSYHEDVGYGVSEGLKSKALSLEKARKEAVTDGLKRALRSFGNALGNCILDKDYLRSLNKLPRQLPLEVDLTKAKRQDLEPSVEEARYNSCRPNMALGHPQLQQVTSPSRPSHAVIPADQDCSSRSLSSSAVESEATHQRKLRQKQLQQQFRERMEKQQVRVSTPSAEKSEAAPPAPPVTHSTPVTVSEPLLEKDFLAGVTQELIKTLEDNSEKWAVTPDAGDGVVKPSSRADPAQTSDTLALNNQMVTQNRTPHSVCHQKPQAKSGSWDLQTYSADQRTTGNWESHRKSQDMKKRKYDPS

Row | Structure (SMILES) | inhibition
1 | COc1cccc(OCC(O)CO)c1 (stereo not given) | inactive: 1.01%
2 | CCC(=O)c1ccc(OCc2ccc(C(=O)OC)cc2)cc1 | inactive: 1.33%
3 | CC(C)CN1CCN(Cc2cccn2-c2ccccn2)CC1CCO (stereo not given) | inactive: -26.2%
4 | CC1(C)C(C=C(Cl)Cl)C1C(=O)N1CCN(Cc2ccccc2)CC1 (stereo not given) | inactive: -2.42%
5 | CNC(=O)Oc1ccc2c(c1)[C@]1(C)CCN(C)[C@@H]1N2C | inactive: 3.13%
6 | COc1cc(/C=C/C(=O)CC(=O)/C=C/c2ccc(O)c(OC)c2)ccc1O | inactive: -278%
7 | CC(=O)OCC[N+](C)(C)C | inactive: 2.07% and inactive: -3.86%
8 | CC[n+]1ccc2cc(OC)c(OC)cc2c1Cc1ccc(OC)c(OC)c1 | inactive: 0.192%
9 | O=C(/C=C/c1ccc2c(c1)OCO2)c1ccccn1 | inactive: -21.4%
10 | Cn1c(=O)c(C(=O)NCCO)c(O)c2ccccc21 | inactive: 1.86%
11 | CN1C(=O)C(O)(CC(=O)/C=C/C=C/c2ccccc2)c2ccccc21 (stereo not given) | inactive: -13.6%
12 | Cn1cc(C2N3CC4(C)CN2CC(C)(C3)C4=O)c2ccccc21 (stereo not given) | inactive: -2.47%
13 | OCCN(CCO)c1ccc2ccccc2c1 | inactive: -0.71%
14 | CC(C)(C)C(=O)NC(=S)NNC(=O)c1ccncc1 | inactive: -11.2%
15 | CN(C)[C@@H]1C(=O)C(C(N)=O)=C(O)[C@@]2(O)C(=O)C3=C(O)c4c(O)ccc(Cl)c4[C@@H](O)[C@H]3C[C@@H]12 | inactive: -21.9%
16 | CCOC(=O)c1ccc(N2C(=O)C(CC(N)=O)N(CCc3ccc(OC)c(OC)c3)C2=S)cc1 (stereo not given) | inactive: 3.53%
17 | COc1ccc2[nH]cc(CCNC(=O)C3CCCNC3=O)c2c1 (stereo not given) | inactive: 0.0365%
18 | CC1COc2c(N3CCN(C)CC3)c(F)cc3c(=O)c(C(=O)O)cn1c23 (stereo not given) | inactive: -9.72%
19 | CCN(CC)C(=O)c1sc(NC(=O)c2c(OC)cccc2OC)c(C#N)c1C | inactive: -7.02%
20 | O=C(O)/C=C/c1cnc[nH]1 | inactive: 7.74%
21 | NCc1ccccc1COc1ccccc1 | inactive: -4.4%
22 | COCCCNc1nc2c([nH]1)c(=O)[nH]c(=O)n2C | inactive: -1.14%
23 | CC(C)(C)NCC(O)COc1cccc2c1C[C@H](O)[C@H](O)C2 (stereo not given in full) | inactive: -8.68%
24 | O=C1CN(O)C=C2N=c3ccccc3=C2N1c1ccc([N+](=O)[O-])cc1 | inactive: -6.26%
25 | COCCc1ccc(OCC(O)CNC(C)C)cc1 (stereo not given) | inactive: -1.06%

Among those listed so far, these have four or more nitrogen atoms.
Row | Structure (SMILES) | inhibition
3 | CC(C)CN1CCN(Cc2cccn2-c2ccccn2)CC1CCO (stereo not given) | inactive: -26.2%
14 | CC(C)(C)C(=O)NC(=S)NNC(=O)c1ccncc1 | inactive: -11.2%
22 | COCCCNc1nc2c([nH]1)c(=O)[nH]c(=O)n2C | inactive: -1.14%
24 | O=C1CN(O)C=C2N=c3ccccc3=C2N1c1ccc([N+](=O)[O-])cc1 | inactive: -6.26%

Additional entries.

Row | Structure (SMILES) | inhibition
26 | CC(C)Cc1ccc(C(C)C(=O)O)cc1 (stereo not given) | inactive: -18.4%
27 | CC(=O)NC(C(=O)NCC(N)=O)C(C)C (stereo not given) (Ac-[ξV]-Gly-NH2) | inactive: 2.28%
28 | O=S(=O)(CCc1nc2ccccc2[nH]1)c1ccc(Cl)cc1 | inactive: -5.81%
29 | C[N+](C)(C)CCOP(=O)([O-])OC[C@H](O)CO | inactive: 6.57%
30 | CC(C)Oc1cccc(C(=O)N2CCCC2)c1 | inactive: -2.43%
31 | CN(C)C(=O)CCCCCCCCC(=O)N(C)C | inactive: -13.3%
32 | CC(=O)NC(Cc1c[nH]c2ccccc12)C(=O)N/N=C/c1ccccc1 (stereo not given) | inactive: -9.28%
33 | COc1ccc(-c2nc(NC(C)=O)sc2-c2ccc(OC)cc2)cc1 | inactive: 7.84%
34 | Cc1nc(NCc2ccco2)c(C#N)c2c1COC(C)(C)C2 | inactive: -36.8%
35 | C=C(C)C(=O)Nc1ccc(NC(C)C)cc1 | inactive: -20.1%
36 | O=C1[C@@H]2CSCN2C(=O)CN1Cc1ccc(F)cc1 | inactive: 1.73%
37 | COc1cc(C(=O)Nc2ccc(N(C)C)cc2)c([N+](=O)[O-])cc1OC | inactive: 4.77%
38 | CC(C)(C)NCC(O)c1cc(O)cc(O)c1 (stereo not given) | inactive: -0.924%
39 | COc1ccc(Cc2nc(-c3ccc(Br)cc3)no2)cc1 | inactive: -3.69%
40 | CCc1oc2ccccc2c1C(=O)c1cc(Br)c(O)c(Br)c1 | inactive: -13.4%
41 | CC(C)NC(=O)c1ccc(C(C)C)cc1 | inactive: -5.18%
42 | O=C1C2C3C=CC(C4CC34)C2C(=O)N1/N=C/c1ccc(-c2ccc([N+](=O)[O-])cc2)o1 (stereo not given) | inactive: -40.7%
43 | c1ccc(Nc2cccc3c(Nc4ccccc4)cccc23)cc1 | active: 51.9%
44 | COC(=O)C1=C(C)NC(C)=C(C(=O)OCCN(C)Cc2ccccc2)C1c1cccc([N+](=O)[O-])c1 (stereo not given) | inactive: 12.7%
45 | COc1ccc(-c2nnc(-c3cc4c(ccc5ccccc54)oc3=O)o2)cc1 | inactive: -4.25%
46 | CC(=O)SC1CC2=CC(=O)CCC2(C)C2CCC3(C)C(CCC34CCC(=O)O4)C12 (stereo not given) | inactive: -15.3%
47 | CNc1c2c(nn1C)CCCC2 | inactive: 5.41%
48 | CC(C)CN1CC(C(=O)O)CC1=O (stereo not given) | inactive: -3.12%
49 | CC(C)=CCC(C)(C)/C=N/NC(N)=O | inactive: -3.93%
50 | COc1c2ccoc2nc2c(OC)cccc12 | inactive: 10.6%

Row | Structure (SMILES) | inhibition
51 | NCCCC(N)(C(=O)O)C(F)F (stereo not given) | inactive: -2.52%
52 | COc1cc(/C=C(\C#N)C(=O)N2CCc3ccccc32)ccc1O | inactive: -109%
53 | Cc1ccccc1C(OCCN(C)C)c1ccccc1 (stereo not given) | inactive: -5.6%
54 | Cc1ccc(NCCC(=O)c2ccccc2)cc1Cl | inactive: -5.14%
55 | CCSC(SCC)[C@H](O)[C@@H](O)[C@H](O)[C@H](O)CO | inactive: 2.44%
56 | COc1ccccc1C(CCN(Cc1ccccc1)C(C)=O)c1ccco1 (stereo not given) | inactive: -5.48%
57 | O=C(CCSc1ccccc1)N1CCCC1 | inactive: -12%
58 | CCCCNc1ccc(C(=O)OCCN(C)C)cc1 | inactive: 5.27%
59 | COc1ccc2[nH]c(=O)c(CN(C(=O)c3ccco3)C(C)C)cc2c1 | inactive: -2.27%
60 | Cc1ccccc1C(=O)Nc1ccccc1C(=O)NCC(C)C | inactive: -0.974%
61 | O=C(/C=C/c1ccccc1)/C=C/c1ccccc1 | inactive: -25.5%
62 | CC(OC(=O)c1cc(=O)[nH]c2ccccc12)C(=O)c1ccccc1 (stereo not given) | inactive: 1.44%
63 | Cc1cnc(C(=O)NCCc2ccc(S(=O)(=O)NC(=O)NC3CCCCC3)cc2)cn1 | inactive: -13.1%
64 | CCc1cc2c(=O)c(-c3nc(C)cs3)c(CCCC(=O)O)oc2cc1O | inactive: -8.02%
65 | CC1(C)C2CCC1(C(=O)O)c1nc3ccccc3nc12 (stereo not given) | inactive: -6.74%
66 | Cc1ccsc1/C=C/C1=NCCCN1C | inactive: 5.97%
67 | COc1ccc(C=O)c(OC)c1 | inactive: 1.28%
68 | Fc1cc(F)cc(NC(=S)NCCCN2CCOCC2)c1 | inactive: -16.2%
69 | CCCCC[C@H](O)/C=C/[C@@H]1[C@@H](C/C=C\CCCC(=O)OC)[C@@H](O)C[C@H]1O | inactive: 32.3%
70 | CCN(CC)CCNc1ccc(CO)c2sc3ccccc3c(=O)c12 | active: 61.5%
71 | Cc1ccc(O)c(CCc2ccccc2)n1 | inactive: -5.88%
72 | Cn1nc(-c2ccccn2)nc2c(=O)n(C)c(=O)nc1-2 | inactive: 9.61%
73 | CCN(CC)CCOC(=O)C(c1ccccc1)c1ccccc1 | inactive: -0.371%
74 | OC(CCCN1CCCCC1)(c1ccccc1)c1ccccc1 | inactive: 10.1%
75 | COC1(C)CC2C(CC1OC(=O)c1cc([N+](=O)[O-])cc([N+](=O)[O-])c1)C2(C)C (stereo not given) | inactive: 2.54%

Row | Structure (SMILES) | inhibition
76 | COc1ccccc1NC(=O)C12CCC(C)(C(=O)C1)C2(C)C (stereo not given) | inactive: -4.76%
77 | C[C@]12CC[C@@H]3c4ccc(OS(=O)(=O)O)cc4CC[C@H]3[C@@H]1CCC2=O | inactive: 6.12%
78 | Cc1ccc(S(=O)(=O)NC(=O)NN2CCCCCC2)cc1 | inactive: -5.47%
79 | COc1ccc(CCn2c(C)nc3c(c(=O)c4ccccc4n3C)c2=O)cc1 | inactive: -5.51%
80 | O=c1nc2sc3ccccc3n2c(=O)n1-c1ccc(Cl)cc1 | inactive: 4.32%
81 | O=C(OCCN1CCOCC1)c1cccs1 | inactive: -2.59%
82 | CCCC(CCC)C(=O)OC1C[C@H]2CC[C@@H](C1)[N+]2(C)C (stereo not given in full) | inactive: 2.65%
83 | c1ccc(Cn2ncc3c(Nc4ccccc4)ncnc32)cc1 | inactive: 4.07%
84 | COc1cc2c(cc1OC)CN(C(=O)c1ccc(S(=O)(=O)N(C)c3ccccc3)cc1)CC2 | inactive: 2.83%
85 | CCOc1ccccc1C(=O)NCCC(=O)O | inactive: -11.9%
86 | Cc1cc(-c2nn(-c3ccccc3F)cc2CN2CCCC(O)C2)c(C)s1 (stereo not given) | inactive: -16.4%
87 | OCCN(Cc1nc(-c2ccc3c(c2)OCO3)no1)Cc1cccs1 | inactive: 2.4%
88 | Cc1cc(-c2ccccc2)nnc1NCCN1CCOCC1 | inactive: -6.44%
89 | OC[C@H]1O[C@@H](n2cnc3c(Nc4ccccc4)ncnc32)[C@H](O)[C@@H]1O | inactive: 1.34%
90 | C=CCNC(=S)N1CCc2c([nH]c3ccccc23)C1C (stereo not given) | inactive: -6.75%
91 | Cc1nonc1CN(C)C(=O)c1ccc(OC2CCN(Cc3ccccn3)CC2)cc1 | inactive: -15.3%
92 | COc1ccc(-c2onc(C)c2-c2ccc(C(=O)OC(C)C)o2)c(O)c1 | inactive: 9.48%
93 | O=C(Oc1cccccc1=O)c1ccccc1 | inactive: -11.3%
94 | Cn1c2c(c(=O)[nH]c1=O)C(c1ccc(O)cc1)C1=C(N2)c2ccccc2C1=O (stereo not given) | inactive: 43.2%
95 | CN(C)CCOCCOc1ccc(Cl)cc1Br | inactive: -5.5%
96 | O=c1c2ccccc2nc2n1-c1ccccc1CCC2 | inactive: 6.7%
97 | O=C(O)CCCCCN1C(=O)C(=O)/C(=C(/O)c2ccccc2)C1c1ccccc1 (stereo not given) | inactive: -8.36%
98 | CCc1ccc(CN(C)Cc2nc(Cc3ccccc3)no2)nc1 | inactive: -14.8%
99 | CC(C)(C)c1ccc(C(O)CCCN2CCC(C(O)(c3ccccc3)c3ccccc3)CC2)cc1 (stereo not given) | inactive: 44.9%
100 | CC(COc1ccccc1)NC(C)C(O)c1ccc(O)cc1 (stereo not given) | inactive: -0.424%

Three entries already listed, ordered by formula weight, ascending:
Row | Structure (SMILES) | inhibition
96 | O=c1c2ccccc2nc2n1-c1ccccc1CCC2 | inactive: 6.7%
83 | c1ccc(Cn2ncc3c(Nc4ccccc4)ncnc32)cc1 | inactive: 4.07%
97 | O=C(O)CCCCCN1C(=O)C(=O)/C(=C(/O)c2ccccc2)C1c1ccccc1 (stereo not given) | inactive: -8.36%
